Laboratory results reported in patent publication US20260242320A1, “USE OF CANNABIDIOL DERIVATIVE IN PREPARATION OF MEDICAMENT” (priority 2023, published 2026).

System: LPS-induced proinflammatory factor nitric oxide (NO) in immunocompetent BV-2 cells
Assay: NO assay: inhibition of LPS-induced NO overproduction in BV-2 cells
Format: cell-based
Conditions: for Therapeutic index (TI): TI = IC50 of cellular viability/IC50 of NO
Method: BV-2 cells were seeded at a density of 5×10^4 cells per milliliter in 96-well plates. After 24 h incubation, the media was removed and changed to DMEM without FBS and penicillin-streptomycin. LPS (200 ng/mL) and different concentrations of compounds were added. After 24 h treatment, 100 μL of media was transferred to flat black 96-well micro fluor plates, and then, 10 μL of 0.05 mg/mL 2,3-diaminonaphthalene was added and incubated in the dark for 15 min. 5 μL of NaOH (3 M) was subsequently added to each well to quench the reaction. NO inhibition ratio was analyzed by a SYNERGY H1 Microplate Reader (BioTek Instruments, Carlsbad, CA, USA) with excitation at 360 nm and emission at 430 nm. The fluorescence value of the LPS-treated group was set as 100%.

## C=C(C)[C@@H]1CCC(C)=C[C@H]1c1c(O)cc(C(C)n2nccn2)cc1O (stereo partly drawn) [CIAC001, (1′R,2′R)-4-(1-(2H-1,2,3-Triazol-2-yl)ethyl)-5′-methyl-2′-(prop-1-en-2-yl)-1′,2′,3′,4′-tetrahydro-[1,1′-biphenyl]-2,6-diol]
Listed as 19a (CIAC001)
  Therapeutic index (TI): 23.1 ± 6.6
Vs CBD
  fold improvement of therapeutic index relative to CBD: ~ 30 fold
  fold increased anti-neuroinflammatory activity compared to CBD: 4.9 fold
Vs CBD, listed as 19a (CIAC001)
  fold improvement of therapeutic index relative to CBD: about 30 fold

## C=C(C)[C@@H]1CCC(C)=C[C@H]1c1c(O)cc(CCCCC)cc1OCC [Compound 2a, (1′ R,2′R)-6-Ethoxy-5′-methyl-4-pentyl-2′-(prop-1-en-2-yl)-1′,2′,3′,4′-tetrahydro-[1,1′-biphenyl]-2-ol]
  Therapeutic index (TI): 1.1 ± 0.1

## C=CCOc1cc(CCCCC)cc(O)c1[C@@H]1C=C(C)CC[C@H]1C(=C)C [Compound 4a, (1′R,2′R)-6-(Allyloxy)-5′-methyl-4-pentyl-2′-(prop-1-en-2-yl)-1′,2′,3′,4′-tetrahydro-[1,1′-biphenyl]-2-ol]
  Therapeutic index (TI): 0.7 ± 0.1

## C#CCOc1cc(CCCCC)cc(O)c1[C@@H]1C=C(C)CC[C@H]1C(=C)C [Compound 5a, (1′R,2′R)-5′-Methyl-4-pentyl-2′-(prop-1-en-2-yl)-6-(prop-2-yn-1-yloxy)-1′,2′,3′,4′-tetrahydro-[1,1′-biphenyl]-2-ol]
  Therapeutic index (TI): 1.2 ± 0.4

## C=C(C)[C@@H]1CCC(C)=C[C@H]1c1c(O)cc(CCC)cc1O [Compound 12b, (1′R,2′R)-5′-Methyl-2′-(prop-1-en-2-yl)-4-propyl-1′,2′,3′,4′-tetra-hydro-[1,1′-biphenyl]-2,6-diol, reference compound]
  Therapeutic index (TI): 3.5 ± 2.0

## C=C(C)[C@@H]1CCC(C)=C[C@H]1c1c(O)cc(CCCC)cc1O [Compound 12c]
  Therapeutic index (TI): 2.2 ± 1.6

## C=C(C)[C@@H]1CCC(C)=C[C@H]1c1c(O)cc(CCCCCC)cc1O [Compound 12e, (1′R,2′R)-4-Hexyl-5′-methyl-2′-(prop-1-en-2-yl)-1′,2′,3′,4′-tetra-hydro-[1,1′-biphenyl]-2,6-diol]
  Therapeutic index (TI): 9.0 ± 1.9

## C=C(C)[C@@H]1CCC(C)=C[C@H]1c1c(O)cc(CCCCCCC)cc1O [Compound 12f, (1′R,2′R)-4-Heptyl-5′-methyl-2′-(prop-1-en-2-yl)-1′,2′,3′,4′-tetra-hydro-[1,1′-biphenyl]-2,6-diol]
  Therapeutic index (TI): 0.3 ± 0.1

## C=C(C)[C@@H]1CCC(C)=C[C@H]1c1c(O)cc(CCCCCCCC)cc1O [Compound 12g, (1′R,2′R)-5′-Methyl-4-octyl-2′-(prop-1-en-2-yl)-1′,2′,3′,4′-tetra-hydro-[1,1′-biphenyl]-2,6-diol]
  Therapeutic index (TI): 0.2 ± 0.1

## C=C(C)[C@@H]1CCC(C)=C[C@H]1c1c(O)cc(C(C)n2ccnc2)cc1O (stereo partly drawn) [Compound 19c, (1′R,2′R)-4-(1-(1H-Imidazole-1-yl)ethyl)-5′-methyl-2′-(prop-1-en-2-yl)-1′,2′,3′,4′-tetrahydro-[1,1′-biphenyl]-2,6-diol]
  Therapeutic index (TI): 7.4 ± 1.2
